Assay results reported in article PMC8647151, “PLK1‐dependent phosphorylation restrains EBNA2 activity and lymphomagenesis in EBV‐infected mice” (EMBO Reports, 2021).
No constants are given. Whether binding was seen depends on the method and setting. Binding seen in cells or lysates may run through a third protein. Some results given as binding are weak or reduced against the parent protein; the word gives no strength.

Key:
[1] = molecular target: GST-EBNA2 446-474 (wt) (Epstein-Barr virus (B95-8)) (UniProt P12978); assay: pull-down; GST-EBNA2 446-474 (wt or phosphorylation mutants) on beads as bait; cellular proteins from DG75 cells; Western blot with GST- and p300-specific antibodies, signals quantified and normalized to wt; only the target purified
[2] = molecular target: EBNA2 fragment 327–487 (Epstein-Barr virus (B95-8)) (UniProt P12978); assay: co-IP; DG75 B cells transfected with HA-tagged or (smaller fragments) GFP-tagged EBNA2 fragments; IP of the fragment, endogenous PLK1 detected by Western blot
[3] = molecular target: EBNA2 fragment 342–474 (Epstein-Barr virus (B95-8)) (UniProt P12978); assay: as above
[4] = molecular target: GST-EBNA2 342–422 (not phosphorylated) (Epstein-Barr virus (B95-8)) (UniProt P12978); assay: pull-down; GST-EBNA2 342–422 (wt or S379A, with or without Cyclin B/CDK1 phosphorylation) on glutathione beads; PLK1 from total cellular extracts; Western blot; only the target purified
[5] = molecular target: EBV nuclear antigen 2 (EBNA2), endogenous in EBV-infected lymphoblastoid cell lines (Epstein-Barr virus (recombinant strain 2089, based on strain B95-8)) (UniProt P12978); assay: co-IP; total cell lysates of LCLs infected with EBV 2089; IP with EBNA2- or PLK1-specific or isotype-matched control antibodies; both proteins endogenous; Western blot
[6] = molecular target: HA-EBNA2, doxycycline-induced in DG75 Dox HA-EBNA2 cells (Epstein-Barr virus (B95-8)) (UniProt P12978); assay: co-IP; DG75 B cells expressing HA-tagged EBNA2 wt or point mutants (transfected or doxycycline-induced); IP of EBNA2, endogenous PLK1 detected by Western blot; 1% NP-40 lysis buffer, 150 mM NaCl, 4°C
[7] = molecular target: HA-tagged EBNA2 (wild type), transfected (Epstein-Barr virus (B95-8)) (UniProt P12978); assay: as above

Row | Substance | binding [1] | binding [2] | binding [3] | binding [4] | binding [5] | binding [6] | binding [7]
1 | histone acetylase and co-activator p300, endogenous (from UniProt Q09472 1-2414) | binds |  |  |  |  |  | 
2 | polo-like kinase 1 (PLK1), endogenous (from UniProt P53350 1-603) (enzyme) |  | binds | binds | binds weakly | binds | binds | binds
